We go through four sequences from patent publication US10670612B2 (Saladax Biomedical, Inc., priority 2010, dated 2020).

This series can be described thus: peptide made by a vendor. Conditions: whole synthesis, HPLC.
With “DAEFRHDSGYEVHHQKDREPNRIGLMVGGVVIA (SEQ ID NO: 8)”, the “purity (crude or final not stated)” value came to 97%.

In the case of “DAEFRHDSGYEVHHQKEERPIGLMVGGVVIA (SEQ ID NO: 6) (Modified Peptide)”, the “purity (crude or final not stated)” value came out at 96%.

Consider “DAEFRHDSGYEVHHQKIGLMVGGVVIA (SEQ ID NO: 4)”, for which the “purity (crude or final not stated)” value is 98%.

“DAEFRHDSGYEVHMVGGVVIA (SEQ ID NO: 2) (Modified Peptide)”: the “purity (crude or final not stated)” value came to 90%.
